PubChem BioAssay AID1671195, Yale University – 2021

- Aim: 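Genes whose knockdown alters LDL uptake in liver cancer cells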 (primary screen)
- Cells: human Huh7 hepatoma cells
- Knock-down reagent: siRNA pool against human genes, 18 nM
- Time to read-out: about 2 to 2.5 days of knockdown, then 8 h LDL uptake
- Challenge: DiI-labelled LDL at 30 µg/ml for 8 h, in lipoprotein-deficient serum medium
- Read-out: 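Per-cell DiI-LDL intensity by automated imaging; well means scaled to the plate median and given as a robust z-score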
- Direction: robust z-score: higher = more LDL uptake after knockdown
- Rule for the call: 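Active when two or more replicates show a robust z-score above 2 or below -2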
The deposit covers about 22,000 reagents; this is a random part of them. Of all reagents, about 1,510 (6.9%) got an active call. 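Active includes knockdowns raising or lowering LDL uptake; positive z-scores mean more uptake, negative mean less.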 The numbers tell different reagents against one gene apart. No sequences are given here.

The first 4 records, to show the layout:
gene symbol | reagent | robust z-score, replicate 1 | robust z-score, replicate 2 | robust z-score, replicate 3 | call
LINC00517 | 1 | 0.684 | 0.441 | -0.122 | inactive
LINC01785 | 1 | -0.000314 | -0.0496 | 0.0394 | inactive
LIM2 | 1 | 0.224 | 1.18 | 0.79 | inactive
CPSF3 | 1 | -0.257 | -0.481 | -0.419 | inactive

The listing, from the first entry:
gene symbol | reagent | robust z-score, replicate 1 | robust z-score, replicate 2 | robust z-score, replicate 3 | call
LINC00517 | 1 | 0.684 | 0.441 | -0.122 | inactive
LINC01785 | 1 | -0.000314 | -0.0496 | 0.0394 | inactive
LIM2 | 1 | 0.224 | 1.18 | 0.79 | inactive
CPSF3 | 1 | -0.257 | -0.481 | -0.419 | inactive
UBE2C | 1 | -0.235 | -0.474 | 0.641 | inactive
SHFL | 1 | 0.00278 | 0.543 | -0.189 | inactive
SUN5 | 1 | 0.678 | 0.336 | -0.186 | inactive
NACA3P | 1 | 0.696 | -0.0166 | 0.488 | inactive
NAA80 | 1 | 0.101 | 0.0208 | 1.13 | inactive
SLC66A2 | 1 | 0.635 | 0.46 | 0.49 | inactive
PLXND1 | 1 | -0.0861 | 0.524 | 0.626 | inactive
LOC284901 (retired record) | 1 | 0.765 | 0.828 | 0.221 | inactive
NR3C2 | 1 | -0.305 | 0.0732 | -0.163 | inactive
SVBP | 1 | -0.00184 | 0.607 | 0.208 | inactive
ZC3H11D | 1 | -0.253 | 0.0462 | -0.399 | inactive
DTHD1 | 1 | 0.809 | 0.58 | 0.541 | inactive
LDHC | 1 | 0.269 | 0.537 | 0.444 | inactive
ZNF500 | 1 | -0.355 | 0.0187 | -1.2 | inactive
ZNF91 | 1 | -0.652 | -1.41 | -0.652 | inactive
INF2 | 1 | 0.089 | 0.0813 | 0.199 | inactive
INF2 | 2 | -0.74 | -0.79 | 0.434 | inactive
DDRGK1 | 1 | -0.907 | -0.902 | -0.925 | inactive
NUF2 | 1 | 3.13 | 1.05 | 1.22 | inactive
PUF60 | 1 | 0.316 | 0.147 | -0.36 | inactive
SYTL1 | 1 | -0.293 | -0.18 | -0.353 | inactive
RBL1 | 1 | 0.282 | 0.975 | -0.326 | inactive
LOC285777 (retired record) | 1 | -0.0583 | 0.14 | 0.298 | inactive
ACKR2 | 1 | 0.15 | 0.0116 | -0.432 | inactive
FCN2 | 1 | -1.8 | -1.86 | -2.04 | inactive
FAM87A | 1 | -0.381 | -0.522 | -0.668 | inactive
MSH4 | 1 | -0.269 | 0.1 | 0.292 | inactive
PCNA | 1 | 0.912 | -0.0515 | 1.68 | inactive
MAK16 | 1 | 0.611 | 0.18 | 0.854 | inactive
ACAD9 | 1 | 1.71 | 1.08 | 1.77 | inactive
CFAP70 | 1 | 0.36 | 0.254 | 0.334 | inactive
TERF2IP | 1 | -1.72 | -1.97 | -1.62 | inactive
GGTLC1 | 1 | 0.38 | -0.108 | 1.33 | inactive
KRTAP6-2 | 1 | 0.725 | 0.476 | 0.67 | inactive
LPP | 1 | 0.913 | 0.934 | 0.403 | inactive
PITHD1 | 1 | -1.36 | -0.699 | -0.172 | inactive
OR2M3 | 1 | 1.69 | 1.51 | -0.0852 | inactive
DCAF12L1 | 1 | -1.47 | -0.647 | -0.629 | inactive
LOC253254 (retired record) | 1 | -0.351 | -0.56 | -0.124 | inactive
LCE1B | 1 | -0.872 | -1.29 | -0.923 | inactive
CYB561D2 | 1 | 1.94 | 1.51 | 1.29 | inactive
LOC440960 (retired record) | 1 | 1.02 | 1.11 | 1.07 | inactive
MTRF1L | 1 | -2.4 | -1.68 | -0.888 | inactive
SPOP | 1 | 0.26 | 0.82 | 0.64 | inactive
LOC442480 (retired record) | 1 | -0.236 | 0.0854 | -0.206 | inactive
LOC730236 | 1 | 1.39 | 1.53 | 1.98 | inactive
EZH2 | 1 | -0.621 | -0.9 | -0.55 | inactive
MYRIP | 1 | 1.62 | 1.38 | 2.45 | inactive
DPY19L4 | 1 | 0.682 | 0.283 | 0.505 | inactive
SOWAHC | 1 | 0.506 | 1.11 | 0.962 | inactive
LOC441567 (retired record) | 1 | -0.071 | -0.129 | 0.493 | inactive
HOXB5 | 1 | 0.333 | 1.06 | 0.442 | inactive
RHO | 1 | -1.17 | -0.568 | -1.94 | inactive
MPL | 1 | -0.689 | -0.0452 | -0.627 | inactive
CCL27 | 1 | 1.07 | 0.845 | 0.969 | inactive
ABHD17B | 1 | 0.257 | 2.28 | 2.2 | active
ATP5F1C | 1 | 1.26 | 0.54 | 1.27 | inactive
BCL6 | 1 | -0.788 | -0.63 | -0.471 | inactive
USP31 | 1 | 0.328 | 0.684 | 0.655 | inactive
UGT2A1 | 1 | -0.375 | -0.577 | -0.0643 | inactive
CALB2 | 1 | 3.31 | 2.78 | 3.28 | active
ARSB | 1 | -1.58 | -2.14 | -1.45 | inactive
ZSCAN1 | 1 | 4.89 | 4.23 | 4.38 | active
P2RY2 | 1 | -0.446 | 0.0394 | -0.0116 | inactive
